Test results reported in patent US20090305962A1.
No constants are given. Whether binding was seen depends on the method and setting. Some binding calls cover weakened binding; strength is not graded here.

Protein sequences, listed by entry. Tags and fused reporters are not part of them. Lines headed by an entry give the natural chain unless they say otherwise; changes in a name come on top.
UniProt P05231: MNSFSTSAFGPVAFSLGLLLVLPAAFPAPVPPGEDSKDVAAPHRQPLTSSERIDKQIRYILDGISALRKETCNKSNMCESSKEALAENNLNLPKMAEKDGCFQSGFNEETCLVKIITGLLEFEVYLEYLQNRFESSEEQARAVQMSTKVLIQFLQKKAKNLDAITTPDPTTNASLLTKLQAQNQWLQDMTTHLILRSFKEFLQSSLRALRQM

How the values were obtained:
human IL-6 (human) [1] = target: human IL-6 (human) (UniProt P05231); assay: ELISA on IL-6 (also TF1 cell assay)
human IL-6 (human) [2] = target: human IL-6 (human) (UniProt P05231); assay: panning and screening on IL-6

Binder | binding (human IL-6 (human) [1]) | binding (human IL-6 (human) [2])
CAPSQFQCGSGYCIPLTWVRDGVDDCEDGSDEEDCSQDPEFHKV (designed binder) [SEQ ID NO 567] | – | binds
CPSSQFQCSSGWCIPEDWRCDGVPDCGDGSDEASDH (designed binder) [SEQ ID NO 566] | – | binds
SEQ ID NO 909 (designed binder) CPRTSSAAATANAIHGPGFATAILICPDDSDEDGCPPRTCSPNQFQCGSGYCISQRWVCDGEIDCEDGSDEANCAGSVPKCPSDAFRCRNGRCIPRAWRCDGINDCVDNSDEEECREHT | binds | –
SEQ ID NO 910 (designed binder) CPRTSSAAATANAIHGPGFATAILICPDDSDEDGCPPRTCSPNQFQCGSGYCISQRWVCDGEIDCEDGSDEANCAGSVPKCPSDAFRCRNGRCIPRAWRCDGINDCVDNSDEEECREHT | binds | –

Results, then the binder that gave them:

binding (human IL-6 (human) [1]) | binding (human IL-6 (human) [2]) | Binder
binds | – | SEQ ID NO 917 (designed binder) CPSPVPVRQRPLRSTGLGLRRRQCLSDDSDEEGCPARTCGPGQFQCGSGYCISQRWVCDGENDCEDGSDEANCAGSVPTCTSDEFRCRNGRCIPRAWRCDGVKDCADNSDEEPCKEHQ
binds | – | SEQ ID NO 928 (designed binder) CPRTSSAAATANAIHGPGFATAILICPDDSDEDGCPPRTCSPNQFQCGSGYCISQRWVCDGEIDCEDGSDEANCAGSVPKCPSDAFRCRNGRCIPRAWRCDGINDCVDNSDEEECREHT
